# Reference: PubChem BioAssay AID1259294 (Sanger Institute, 2017)
# Assay: 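Retest synthetic lethal gene and drug pairs with separate siRNA duplexes in CL40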 (follow-up of hits)
# System: human CL40 colorectal cancer cells
# Knock-down reagent: single siRNA against human genes
# Conditions: anchor drug or DMSO vehicle added to knock-down cells: BYL719 1 µM, cetuximab 5 µg/ml, trametinib 10 nM
# Measured: 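Viability averaged across replicates, each scaled to control pool 2 (non-targeting), under vehicle or anchor drug; synergy score compares observed combined effect with expected effect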
# Scale: synergy score with trametinib and synergy score with BYL719 and synergy score with cetuximab: higher = stronger synergistic (synthetic lethal) killing; viability, knock-down alone: higher = more cells survive knock-down; viability, knock-down plus trametinib: higher = more cells survive combination
# Active means: 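a synergy score over 0.10 with BYL719, cetuximab or trametinib marks synergy with a drug; lacking such a score means no synergy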
# Calls: active = synergy with a drug; inactive = no synergy
# The whole screen tested 160 reagents; this is an unselected part. 43 of them (27%) count as active. 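Calls mean synergy with any one drug, not lethality of knock-down alone; BYL719 1 µM, cetuximab 5 µg/ml, trametinib 10 nM barely cut viability.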 No viability above 1 is reported: the scale is capped. Not given: the amount of reagent, the time to read-out.
gene knocked down,PubChem SID,synergy score with trametinib,synergy score with BYL719,synergy score with cetuximab,"viability, knock-down alone (fraction of control)","viability, knock-down plus trametinib (fraction of control)",Call
IRAK1,SID56476703,0.15,0.081,-0.106,1,0.306,active
IRAK1,SID56476704,-0.0483,-0.204,-0.108,0.998,0.503,inactive
IRAK1,SID56476705,0.159,0.0651,-0.114,0.872,0.238,active
IRAK1,SID56476706,-0.179,-0.377,-0.157,0.926,0.601,inactive
CDKN2D,SID56475683,0.104,-0.0654,-0.13,0.586,0.163,active
CDKN2D,SID56475684,0.176,-0.0633,-0.0753,0.967,0.264,active
CDKN2D,SID56475686,-0.061,-0.327,-0.106,1,0.517,inactive
CDKN2D,SID135611272,-0.00935,-0.0974,-0.221,0.308,0.15,inactive
GRK5,SID56476519,0.134,-0.0117,-0.133,0.97,0.308,active
GRK5,SID56476520,0.124,-0.0588,-0.0984,0.857,0.266,active
GRK5,SID56476521,0.152,0.0106,-0.182,0.915,0.264,active
GRK5,SID56476522,0.0796,-0.0191,-0.000505,0.955,0.355,inactive
CRIM1,SID134243173,-0.108,-0.142,-0.183,0.81,0.477,inactive
CRIM1,SID134243174,-0.205,-0.476,-0.269,0.667,0.508,inactive
CRIM1,SID134243175,-0.0115,-0.0319,-0.391,0.682,0.322,inactive
CRIM1,SID134243176,0.0111,-0.0606,-0.211,0.508,0.22,inactive
IKBKB,SID56475899,-0.178,-0.0104,-0.0114,0.807,0.546,inactive
IKBKB,SID56475900,-0.0896,-0.128,-0.114,0.812,0.46,inactive
IKBKB,SID56475901,-0.0884,-0.13,-0.00755,1,0.544,inactive
IKBKB,SID56475902,-0.016,-0.257,-0.0795,0.743,0.354,inactive
CSNK2A2,SID56476699,-0.00993,-0.0152,-0.106,1,0.465,inactive
CSNK2A2,SID56476700,-0.0508,-0.151,-0.0296,0.212,0.147,inactive
CSNK2A2,SID56476701,0.0514,0.016,-0.0779,0.573,0.21,inactive
CSNK2A2,SID56476702,0.0422,-0.17,0.0841,0.356,0.12,inactive
